In PubChem BioAssay AID1487 (National Center for Advancing Translational Sciences (NCATS), 2009):
The other results are listed elsewhere or left out. Shown are side measurements of this screen, not its main read-out; they come without a call. Most of these compounds were active or inconclusive in the main read-out, so they are no random draw. Potencies come from curve fits of mixed quality, noted in brackets.

Assay: qHTS Assay for Modulators of Lamin A Splicing
Details: HeLa LMNA splicing GFP/RFP minigene ratio, 48 h
Method in brief: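 S3 HeLa stable clones carrying a lamin A-EGFP splicing minigene plus DsRed2 were seeded at 600 cells/well in Opti-MEM with 2% FBS, pin-dosed and incubated 48 h at 37°C. Acumen cytometry (488 nm) gave the GFP/RFP total-intensity ratio.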

[1] = measured here: GFP splicing reporter channel
[2] = measured here: RFP viability control channel

Compound	AC50 [1]	AC50 [2]
CC(OC(=O)CNC(=O)c1ccccc1F)C(=O)Nc1nc(-c2ccccc2)cs1 (stereo not given)	3.55 µM [falling, partial curve, poor fit]	4.47 µM [falling, partial curve, poor fit]
CCCC[C@@H]1C[C@H]1[C@@H](NC(=O)c1ccco1)c1ccc(Cl)cc1		35.5 µM [rising, single point]
CCCCC(=O)Nc1cccc(NC(=S)NC(=O)COc2ccccc2Cl)c1		5.62 µM [rising, single point]
CCS(=O)(=O)c1ccc2oc(SCC(=O)Nc3ccc(OC)cc3OC)nc2c1	5.62 µM [falling, single point]	5.62 µM [falling, single point]
CC1CCc2nc(N)c(C#N)c(-c3cccn3C)c2C1 (stereo not given)	12.6 µM [rising, single point]	
Cc1ccc(OCC(=O)Nc2ccc(N3CCN(C(=O)c4ccco4)CC3)cc2)cc1	22.4 µM [falling, single point]	
Cc1cc(NC(=O)CSc2nnc(-c3ccccc3)n2Cc2ccco2)no1		0.355 µM [falling, partial curve, poor fit]
CSc1ccc(-c2nnc(NC(=O)c3ccc4c(c3)OCCO4)o2)cc1		35.5 µM [rising, single point]
O=c1c2ccccc2nnn1CSc1nnc(-c2ccc3c(c2)OCO3)o1		11.2 µM [rising, single point]
COc1ccc(CCNC(=O)C(NS(=O)(=O)c2ccc3c(c2)CCN3C(C)=O)C(C)C)cc1OC (stereo not given)		0.708 µM [falling, single point]
CCC(CC)c1nnc(NC(=O)CCN2C(=O)c3ccccc3C2=O)s1		0.891 µM [falling, full curve]
COc1cccc(Nc2nc3ccccc3n2C(C)C)c1		0.00501 µM [falling, full curve, poor fit]
CCCC(=O)Nc1nc(C)c(-c2csc(Nc3cc(OC)ccc3OC)n2)s1	12.6 µM [falling, single point]	6.31 µM [falling, partial curve, poor fit]
CC(C)c1ccccc1-n1c(SCc2cc(=O)oc3ccc4ccccc4c23)nnc1-c1cccnc1		17.8 µM [rising, single point]
Cc1cc(C(=O)COC(=O)c2ccc(N)cc2)c(C)n1-c1c(C)n(C)n(-c2ccccc2)c1=O	0.00708 µM [rising, full curve, poor fit]	0.1 µM [rising, partial curve, poor fit]
CC(=O)c1c(C)[nH]c(C(=O)OCn2nnc3ccccc3c2=O)c1C	12.6 µM [rising, partial curve]	14.1 µM [rising, partial curve]
O=C(Cc1coc(-c2ccc(F)cc2)n1)Nc1ccccc1		35.5 µM [rising, single point]
COc1ccc(SCC(=O)Nc2ccc(N3CCN(C)CC3)c(F)c2)cc1		0.316 µM [falling, full curve]
CC(C)CCNC(=O)Cc1c(C(=O)O)[nH]c2ccc(Cl)cc12	2.51 µM [rising, partial curve, poor fit]	5.01 µM [rising, partial curve, poor fit]
CCN(CC)C(=O)/C(=C/c1ccc2c(c1)OCO2)NC(=O)c1ccc(Br)cc1		20 µM [rising, partial curve, poor fit]
O=C(N/N=C/c1ccco1)c1ccccc1OCc1ccccc1Cl		14.1 µM [rising, partial curve]
CCc1ccc(-n2c(C)cc(/C=N/NC(=O)OC)c2C)cc1		35.5 µM [rising, single point]
Cc1ccc(S(=O)(=O)N2CCN(C(=O)c3c(C)nn(-c4ccccc4)c3Cl)CC2)cc1	31.6 µM [rising, single point]	35.5 µM [rising, single point]
c1ccc(CNc2nc(-c3ccc4c(c3)OCO4)nc3ccccc23)cc1	14.1 µM [falling, single point]	25.1 µM [falling, single point]
CCOc1cc(CNC(=O)c2ccc3nc(C(C)C)oc3c2)cc(OCC)c1OCC	35.5 µM [rising, single point]	
COc1ccc(N2CCN(S(=O)(=O)CCNC(=O)Cc3ccc(OC)c(OC)c3)CC2)cc1		0.00316 µM [falling, full curve, poor fit]
O=[N+]([O-])/C=C/c1cn(Cc2ccc(F)cc2)c2ccccc12	35.5 µM [falling, single point]	25.1 µM [falling, single point]

By substructure: the compounds so far containing four or more nitrogen atoms
Compound	AC50 [1]	AC50 [2]
CC1CCc2nc(N)c(C#N)c(-c3cccn3C)c2C1 (stereo not given)	12.6 µM [rising, single point]	
Cc1cc(NC(=O)CSc2nnc(-c3ccccc3)n2Cc2ccco2)no1		0.355 µM [falling, partial curve, poor fit]
O=c1c2ccccc2nnn1CSc1nnc(-c2ccc3c(c2)OCO3)o1		11.2 µM [rising, single point]
CCC(CC)c1nnc(NC(=O)CCN2C(=O)c3ccccc3C2=O)s1		0.891 µM [falling, full curve]
CCCC(=O)Nc1nc(C)c(-c2csc(Nc3cc(OC)ccc3OC)n2)s1	12.6 µM [falling, single point]	6.31 µM [falling, partial curve, poor fit]
CC(C)c1ccccc1-n1c(SCc2cc(=O)oc3ccc4ccccc4c23)nnc1-c1cccnc1		17.8 µM [rising, single point]
Cc1cc(C(=O)COC(=O)c2ccc(N)cc2)c(C)n1-c1c(C)n(C)n(-c2ccccc2)c1=O	0.00708 µM [rising, full curve, poor fit]	0.1 µM [rising, partial curve, poor fit]
CC(=O)c1c(C)[nH]c(C(=O)OCn2nnc3ccccc3c2=O)c1C	12.6 µM [rising, partial curve]	14.1 µM [rising, partial curve]
Cc1ccc(S(=O)(=O)N2CCN(C(=O)c3c(C)nn(-c4ccccc4)c3Cl)CC2)cc1	31.6 µM [rising, single point]	35.5 µM [rising, single point]

Carrying on:

Compound	AC50 [1]	AC50 [2]
Cc1ccc(NC(=O)C2CCCN2S(=O)(=O)c2ccc3c(c2)CCC(=O)N3)cc1Cl (stereo not given)		11.2 µM [rising, single point]
CCc1nc(N2CCCC2C(=O)O)c2oc3ccccc3c2n1 (stereo not given)	35.5 µM [rising, single point]	
Cc1sc(NC(=O)CN(Cc2ccc(F)cc2)C(=O)C(C)(C)C)c(C(N)=O)c1C		35.5 µM [rising, single point]
COc1ccc(-c2nc(CN3CCN(c4ncnc5ccccc45)CC3)c(C)o2)c(OC)c1	12.6 µM [falling, partial curve, poor fit]	11.2 µM [falling, partial curve, poor fit]
O=C1c2ccccc2C(Nc2ccc(F)c(Cl)c2)N1Cc1ccco1 (stereo not given)	20 µM [rising, single point]	28.2 µM [rising, single point]
CCOC(=O)CN1C(c2ccc(O)cc2)Nc2ccc(Br)cc2C1c1ccccc1 (stereo not given)	35.5 µM [falling, single point]	35.5 µM [falling, single point]
Cc1cccc2cc(CN(CC3CCCO3)C(c3nnnn3Cc3ccco3)C(C)C)c(=O)[nH]c12 (stereo not given)		10 µM [falling, partial curve]
CCN(CC)c1nc(C#N)cc(-c2ccc(OC)cc2)n1		35.5 µM [rising, single point]
O=C(NCCc1ccccc1)c1ccc(Cn2c(SCc3ccccc3F)nc3cccnc32)cc1	10 µM [falling, partial curve]	10 µM [falling, partial curve]
O=C(CSc1nc(=O)n(Cc2ccncc2)c2c1CCC2)Nc1ccc(F)cc1F	0.316 µM [rising, full curve, poor fit]	
CCOc1cc2c3c(c1)C1(C(=O)N3C(C)(C)CC2C)C(C#N)=C(N)N2C(=C1C#N)Nc1ccccc12 (stereo not given)		0.158 µM [rising, full curve, poor fit]
CCC1OC(=O)C(C)[C@@H](O[C@H]2C[C@@](C)(OC)C(O)C(C)O2)C(C)[C@@H](O[C@@H]2OC(C)CC(N(C)C)C2O)[C@@](C)(O)CC(C)C(=O)[C@@H](C)C(O)[C@]1(C)O (stereo not given in full)		0.00562 µM [falling, full curve, poor fit]
COc1cc(NC(=O)C(=O)NNC(=O)C2CCCCC2)c(OC)cc1Cl		0.0794 µM [rising, full curve, poor fit]
COC(=O)N/N=C/c1cn(CCCOc2ccc(C)cc2)c2ccccc12	15.8 µM [rising, partial curve, poor fit]	25.1 µM [rising, single point]
CSc1nc2c(sc3ccccc32)c(=O)n1Cc1ccc(C)cc1	0.0501 µM [rising, full curve, poor fit]	
NNc1nc(-c2ccccc2Cl)nc2sc3c(c12)CCCC3		12.6 µM [rising, partial curve]
Cc1ccc2c(CC(=O)N3CCN(S(=O)(=O)c4ccc5c(c4)OCCO5)CC3)coc2c1	10 µM [rising, partial curve]	15.8 µM [rising, partial curve]
CCc1nc(-c2ccc(-c3ccc(OC)cc3)nc2OC)no1		11.2 µM [rising, partial curve]
COc1cccc(CNC(=O)C(=O)NCC(c2ccc3c(c2)OCO3)N2CCOCC2)c1 (stereo not given)	11.2 µM [falling, partial curve]	11.2 µM [falling, partial curve, poor fit]
COC(=O)C1=C(C(=O)OC)N2C=CC=CC2(C)C(C(=O)OC)=C1C(=O)OC (stereo not given)		0.224 µM [rising, full curve, poor fit]
Cc1ccc(CNC(=O)c2cc(-c3ccc(C)cc3)nc3n[nH]c(-c4cccc([N+](=O)[O-])c4)c23)cc1		12.6 µM [falling, partial curve, poor fit]
OC1(c2cccnc2)CCN(Cc2nnnn2Cc2ccccc2)CC1		0.00501 µM [falling, full curve]
CCc1nnc(NC(=O)CSc2nnc3c(C)cc4c(C)ccc(C)c4n23)s1		3.98 µM [rising, full curve]
Cc1nn(-c2cccc(Cl)c2)c(Cl)c1/C=N/NC(=O)c1cccnc1		0.112 µM [rising, full curve, poor fit]
CNC(=S)N(CCc1c(C)[nH]c2ccc(C)cc12)Cc1ccc(OC)c(OC)c1		11.2 µM [rising, partial curve]
COc1ccc(NC(=O)Cc2c[nH]c3ccccc23)cc1S(=O)(=O)N1CCCCC1		28.2 µM [rising, single point]
Nc1ncnc(Sc2ccc(Cl)cc2)c1[N+](=O)[O-]		22.4 µM [rising, partial curve, poor fit]

Two of the compounds above, bar-delimited:
Compound | AC50 [1] | AC50 [2]
Cc1nn(-c2cccc(Cl)c2)c(Cl)c1/C=N/NC(=O)c1cccnc1 |  | 0.112 µM [rising, full curve, poor fit]
CNC(=S)N(CCc1c(C)[nH]c2ccc(C)cc12)Cc1ccc(OC)c(OC)c1 |  | 11.2 µM [rising, partial curve]
